{
  "sequences": {"note": "Sequences of proteins named here, by UniProt entry; tags and fusion partners are left off. A change or cut given only in a name is not applied to a line headed by its entry.", "UniProt P56856": "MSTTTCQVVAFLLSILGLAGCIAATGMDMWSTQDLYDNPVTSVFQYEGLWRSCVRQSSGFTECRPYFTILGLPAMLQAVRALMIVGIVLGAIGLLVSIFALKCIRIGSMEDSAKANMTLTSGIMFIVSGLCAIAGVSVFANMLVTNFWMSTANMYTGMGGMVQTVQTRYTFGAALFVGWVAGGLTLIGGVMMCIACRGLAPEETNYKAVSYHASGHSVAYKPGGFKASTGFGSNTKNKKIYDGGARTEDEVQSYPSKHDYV"},
  "source": "patent US20250127915A1",
  "about": "(SHANGHAI JUNSHI BIOSCIENCES, published 2025)",
  "binders": {"B1": {"name": "JS012-Chi2-hu2-v3-2a (antibody, human IgG1, kappa, V domains shown)", "VH": "EVQLVESGGGLVQPGGSLRLSCAASGFTLNNFGMHWVRQAPGKGLEWVSSISSGSGTIYYADSVKGRFTISRDNPKNSLYLQMNSLRAEDTAVYYCARAYYGNGFSFWGQGTLVTVSS", "VL": "DIVMTQSPDSLAVSLGERATINCKSSQSLLNSGNQKNYLTWYQQKPGQPPKLLIYWASTRESGVPDRFSGSGSGTDFTLTISSLQAEDVAVYYCQNVYSYPLTFGQGTKLEIKR", "notes": "also called JS107-5"}},
  "molecular_target": "human CLDN-18.2 (human, UniProt P56856 1-261)",
  "test": "flow cytometry on NUGC4-CLDN-18.2 cells, fluorescent secondary antibody",
  "note": "Results are given in words; binding and its absence hold for the method and conditions named. Some binding calls cover weakened binding; strength is not graded here.",
  "data": [
    {"binder": "B1", "values": [
      {"measurement": "binding", "value": "binds"}
    ]}
  ]
}
